Record: PubChem BioAssay AID1508597 (Cure First, 2020)

Aim: 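Survival screen with siRNA in ovarian cancer cells derived from patients, with or without rucaparib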 (primary screen)
Cells: human ovarian carcinoma lines grown from tumours: OCI-P5x (papillary serous) and OCI-C5x (clear cell)
Reagent: siRNA pool against human genes, 1.25 pmol siRNA per well
Timing: 72 h or 96 h, depending on the cell culture
Challenge: rucaparib 20 µM (about IC30) or vehicle, present until read-out
Measured: 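ATP luminescence measured at 72 or 96 h according to the culture, then normalised and expressed as percent viability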
Scale: viability, normalised: higher = more viable cells remaining
Rule for the call: 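a well counts as a hit if its normalised viability is under 80 percent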
Meaning of the calls: active = viability under 80%; inactive = viability 80% or more
The deposit covers about 2,100 reagents; this is a random part of them. 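Calls flag viability under 80% in either arm, not effects specific to rucaparib; the reference for percent is not stated.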 Unmarked entries are inactive. Not given: the 100% reference.

no.	Gene	rucaparib or vehicle	cell line	technical replicate	viability, normalised (%)
1	ACVR1 (GeneID 90)	Rucaparib	OCI-C5x (clear cell)	1	59.1 (active)
2	ACVR1 (GeneID 90)	Rucaparib	OCI-C5x (clear cell)	2	66.8 (active)
3	ACVR1 (GeneID 90)	Rucaparib	OCI-C5x (clear cell)	3	50.7 (active)
4	ACVR1 (GeneID 90)	Rucaparib	OCI-P5x (serous)	1	114
5	ACVR1 (GeneID 90)	Rucaparib	OCI-P5x (serous)	2	106
6	ACVR1 (GeneID 90)	Rucaparib	OCI-P5x (serous)	3	97.3
7	ACVR1 (GeneID 90)	Vehicle	OCI-C5x (clear cell)	1	67 (active)
8	ACVR1 (GeneID 90)	Vehicle	OCI-C5x (clear cell)	2	66.5 (active)
9	ACVR1 (GeneID 90)	Vehicle	OCI-C5x (clear cell)	3	61.8 (active)
10	ACVR1 (GeneID 90)	Vehicle	OCI-P5x (serous)	1	104
11	ACVR1 (GeneID 90)	Vehicle	OCI-P5x (serous)	2	88.2
12	ACVR1 (GeneID 90)	Vehicle	OCI-P5x (serous)	3	99.7
13	TIMM50 (GeneID 92609)	Rucaparib	OCI-C5x (clear cell)	1	58.8 (active)
14	TIMM50 (GeneID 92609)	Rucaparib	OCI-C5x (clear cell)	2	58.2 (active)
15	TIMM50 (GeneID 92609)	Rucaparib	OCI-C5x (clear cell)	3	35.9 (active)
16	TIMM50 (GeneID 92609)	Rucaparib	OCI-P5x (serous)	1	56 (active)
17	TIMM50 (GeneID 92609)	Rucaparib	OCI-P5x (serous)	2	50.5 (active)
18	TIMM50 (GeneID 92609)	Rucaparib	OCI-P5x (serous)	3	38.5 (active)
19	TIMM50 (GeneID 92609)	Vehicle	OCI-C5x (clear cell)	1	49.6 (active)
20	TIMM50 (GeneID 92609)	Vehicle	OCI-C5x (clear cell)	2	47.6 (active)
21	TIMM50 (GeneID 92609)	Vehicle	OCI-C5x (clear cell)	3	66.1 (active)
22	TIMM50 (GeneID 92609)	Vehicle	OCI-P5x (serous)	1	63.4 (active)
23	TIMM50 (GeneID 92609)	Vehicle	OCI-P5x (serous)	2	51.4 (active)
24	TIMM50 (GeneID 92609)	Vehicle	OCI-P5x (serous)	3	69.6 (active)
25	ITPKB (GeneID 3707)	Rucaparib	OCI-C5x (clear cell)	1	69.2 (active)
26	ITPKB (GeneID 3707)	Rucaparib	OCI-C5x (clear cell)	2	56.4 (active)
27	ITPKB (GeneID 3707)	Rucaparib	OCI-C5x (clear cell)	3	40.8 (active)
28	ITPKB (GeneID 3707)	Rucaparib	OCI-P5x (serous)	1	76.3 (active)
29	ITPKB (GeneID 3707)	Rucaparib	OCI-P5x (serous)	2	57.3 (active)
30	ITPKB (GeneID 3707)	Rucaparib	OCI-P5x (serous)	3	70.8 (active)
31	ITPKB (GeneID 3707)	Vehicle	OCI-C5x (clear cell)	1	39.9 (active)
32	ITPKB (GeneID 3707)	Vehicle	OCI-C5x (clear cell)	2	46.9 (active)
33	ITPKB (GeneID 3707)	Vehicle	OCI-C5x (clear cell)	3	37.7 (active)
34	ITPKB (GeneID 3707)	Vehicle	OCI-P5x (serous)	1	72.8 (active)
35	ITPKB (GeneID 3707)	Vehicle	OCI-P5x (serous)	2	67.9 (active)
36	ITPKB (GeneID 3707)	Vehicle	OCI-P5x (serous)	3	65.4 (active)
37	TOPBP1 (GeneID 11073)	Rucaparib	OCI-C5x (clear cell)	1	50.6 (active)
38	TOPBP1 (GeneID 11073)	Rucaparib	OCI-C5x (clear cell)	2	66.7 (active)
39	TOPBP1 (GeneID 11073)	Rucaparib	OCI-C5x (clear cell)	3	51.3 (active)
40	TOPBP1 (GeneID 11073)	Rucaparib	OCI-P5x (serous)	1	62.5 (active)
41	TOPBP1 (GeneID 11073)	Rucaparib	OCI-P5x (serous)	2	58.8 (active)
42	TOPBP1 (GeneID 11073)	Rucaparib	OCI-P5x (serous)	3	54.2 (active)
43	TOPBP1 (GeneID 11073)	Vehicle	OCI-C5x (clear cell)	1	44.6 (active)
44	TOPBP1 (GeneID 11073)	Vehicle	OCI-C5x (clear cell)	2	57.1 (active)
45	TOPBP1 (GeneID 11073)	Vehicle	OCI-C5x (clear cell)	3	54.4 (active)
46	TOPBP1 (GeneID 11073)	Vehicle	OCI-P5x (serous)	1	61 (active)
47	TOPBP1 (GeneID 11073)	Vehicle	OCI-P5x (serous)	2	61 (active)
48	TOPBP1 (GeneID 11073)	Vehicle	OCI-P5x (serous)	3	43.4 (active)
49	PLCE1 (GeneID 51196)	Rucaparib	OCI-C5x (clear cell)	1	67.7 (active)
50	PLCE1 (GeneID 51196)	Rucaparib	OCI-C5x (clear cell)	2	66.2 (active)
51	PLCE1 (GeneID 51196)	Rucaparib	OCI-C5x (clear cell)	3	54.3 (active)
52	PLCE1 (GeneID 51196)	Rucaparib	OCI-P5x (serous)	1	52.2 (active)
53	PLCE1 (GeneID 51196)	Rucaparib	OCI-P5x (serous)	2	45.1 (active)
54	PLCE1 (GeneID 51196)	Rucaparib	OCI-P5x (serous)	3	55.7 (active)
55	PLCE1 (GeneID 51196)	Vehicle	OCI-C5x (clear cell)	1	60.5 (active)
56	PLCE1 (GeneID 51196)	Vehicle	OCI-C5x (clear cell)	2	65.6 (active)
57	PLCE1 (GeneID 51196)	Vehicle	OCI-C5x (clear cell)	3	51.7 (active)
58	PLCE1 (GeneID 51196)	Vehicle	OCI-P5x (serous)	1	54.9 (active)
59	PLCE1 (GeneID 51196)	Vehicle	OCI-P5x (serous)	2	60.3 (active)
60	PLCE1 (GeneID 51196)	Vehicle	OCI-P5x (serous)	3	62.8 (active)
61	P2RY2 (GeneID 5029)	Rucaparib	OCI-C5x (clear cell)	1	30.5 (active)
62	P2RY2 (GeneID 5029)	Rucaparib	OCI-C5x (clear cell)	2	34.4 (active)
63	P2RY2 (GeneID 5029)	Rucaparib	OCI-C5x (clear cell)	3	46.2 (active)
64	P2RY2 (GeneID 5029)	Rucaparib	OCI-P5x (serous)	1	55.1 (active)
65	P2RY2 (GeneID 5029)	Rucaparib	OCI-P5x (serous)	2	48.2 (active)
66	P2RY2 (GeneID 5029)	Rucaparib	OCI-P5x (serous)	3	51.9 (active)
67	P2RY2 (GeneID 5029)	Vehicle	OCI-C5x (clear cell)	1	51.9 (active)
68	P2RY2 (GeneID 5029)	Vehicle	OCI-C5x (clear cell)	2	36 (active)
69	P2RY2 (GeneID 5029)	Vehicle	OCI-C5x (clear cell)	3	39.6 (active)
70	P2RY2 (GeneID 5029)	Vehicle	OCI-P5x (serous)	1	57.8 (active)
71	P2RY2 (GeneID 5029)	Vehicle	OCI-P5x (serous)	2	69.8 (active)
72	P2RY2 (GeneID 5029)	Vehicle	OCI-P5x (serous)	3	62.6 (active)
73	POLR1B (GeneID 84172)	Rucaparib	OCI-C5x (clear cell)	1	49.2 (active)
74	POLR1B (GeneID 84172)	Rucaparib	OCI-C5x (clear cell)	2	54.2 (active)
75	POLR1B (GeneID 84172)	Rucaparib	OCI-C5x (clear cell)	3	48 (active)
76	POLR1B (GeneID 84172)	Rucaparib	OCI-P5x (serous)	1	41.4 (active)
77	POLR1B (GeneID 84172)	Rucaparib	OCI-P5x (serous)	2	48.5 (active)
78	POLR1B (GeneID 84172)	Rucaparib	OCI-P5x (serous)	3	47.9 (active)
79	POLR1B (GeneID 84172)	Vehicle	OCI-C5x (clear cell)	1	50.7 (active)
80	POLR1B (GeneID 84172)	Vehicle	OCI-C5x (clear cell)	2	50 (active)
81	POLR1B (GeneID 84172)	Vehicle	OCI-C5x (clear cell)	3	42.9 (active)
82	POLR1B (GeneID 84172)	Vehicle	OCI-P5x (serous)	1	56.7 (active)
83	POLR1B (GeneID 84172)	Vehicle	OCI-P5x (serous)	2	50.7 (active)
84	POLR1B (GeneID 84172)	Vehicle	OCI-P5x (serous)	3	64.7 (active)

As entered above.
Entry for ACVR1 (GeneID 90), rucaparib or vehicle Vehicle, cell line OCI-C5x (clear cell), technical replicate 2 in “viability, normalised (%)”: 66.5 (active)
Entry of P2RY2 (GeneID 5029), rucaparib or vehicle Rucaparib, cell line OCI-P5x (serous), technical replicate 1 in “viability, normalised (%)”: 55.1 (active)
Entry of POLR1B (GeneID 84172), rucaparib or vehicle Rucaparib, cell line OCI-P5x (serous), technical replicate 3 in “viability, normalised (%)”: 47.9 (active)
Result of ACVR1 (GeneID 90), rucaparib or vehicle Vehicle, cell line OCI-P5x (serous), technical replicate 1 in “viability, normalised (%)”: 104
